From patent US20240376154A1 (ZYMEWORKS BC INC., priority 2023, published 2024)

Test: general procedure: Fmoc solid-phase peptide synthesis; 2-chlorotrityl resin (Chempep, 0.81 mmol/g)
Settings: for conjugation yield: conjugation step; for step yield: late stage modification step; for crude mass / crude yield: whole synthesis

Substance	conjugation yield	other results
3-((4-((14S,17S)-1-(2,5-dioxo-2,5-dihydro-1H-pyrrol-1-yl)-14-isopropyl-12,15-dioxo-17-(3-ureidopropyl)-3,6,9-trioxa-13,16-diazaoctadecan-18-amido)benzyl)oxy)-N-((7R,11S,19aS,26R,30S,38aS)-26-(3-hydroxyquinoline-2-carboxamido)-11,30-diisopropyl-12,15,31,34-tetramethyl-6,10,13,16,19,25,29,32,35,38-decaoxohexatriacontahydro-2H,6H-dipyrido[1,2-a:1′,2′-q][1,4,7,10,13,17,20,23,26,29]decaazacyclodotriacontin-7-yl)quinoline-2-carboxamide	58% yield	–
(2S,3S,4S,5R,6S)-6-(4-(((2-(((7R,11S,19aS,26R,30S,38aS)-26-(3-((4-((14S,17S)-1-(2,5-dioxo-2,5-dihydro-1H-pyrrol-1-yl)-14-isopropyl-12,15-dioxo-17-(3-ureidopropyl)-3,6,9-trioxa-13,16-diazaoctadecan-18-amido)benzyl)oxy)quinoline-2-carboxamido)-11,30-diisopropyl-12,15,31,34-tetramethyl-6,10,13,16,19,25,29,32,35,38-decaoxohexatriacontahydro-2H,6H-dipyrido[1,2-a:1′,2′-q][1,4,7,10,13,17,20,23,26,29]decaazacyclodotriacontin-7-yl)carbamoyl)quinolin-3-yl)oxy)methyl) phenoxy)-3,4,5-trihydroxytetrahydro-2H-pyran-2-carboxylic acid	66% yield	–
(2S,3S,4S,5R,6S)-6-((2-(((5aS,9R,15aS,24S,28R,34aS)-9-(3-((4-((14S,17S)-1-(2,5-dioxo-2,5-dihydro-1H-pyrrol-1-yl)-14-isopropyl-12,15-dioxo-17-(3-ureidopropyl)-3,6,9-trioxa-13,16-diazaoctadecan-18-amido)benzyl)oxy)quinoline-2-carboxamido)-24-isopropyl-20,23,39-trimethyl-6,10,16,19,22,25,29,35,38,41-decaoxotetracontahydro-1H,12H-azepino[1,2-j]dipyrido[1,2-a:1′,2′-q][1,4,7,10,13,17,20,23,26,29]decaazacyclodotriacontin-28-yl)carbamoyl)quinolin-3-yl)oxy)-3,4,5-trihydroxytetrahydro-2H-pyran-2-carboxylic acid	58% yield	–
(2S,3S,4S,5R,6S)-6-((2-(((7R,11S,19aS,26R,30S,38aS)-7-(3-((4-((14S,17S)-1-(2,5-dioxo-2,5-dihydro-1H-pyrrol-1-yl)-14-isopropyl-12,15-dioxo-17-(3-ureidopropyl)-3,6,9-trioxa-13,16-diazaoctadecan-18-amido)benzyl)oxy)quinoline-2-carboxamido)-11,30-diisopropyl-12,15,31,34-tetramethyl-6,10,13,16,19,25,29,32,35,38-decaoxotetratriacontahydro-2H,6H,10H-dipyrido[2,1-b1: 2′,1′-l][1]oxa[4,7,10,13,17,20,23,26,29]nonaazacyclodotriacontin-26-yl)carbamoyl)quinolin-3-yl)oxy)-3,4,5-trihydroxytetrahydro-2H-pyran-2-carboxylic acid	42% yield	–
(2S,3S,4S,5R,6S)-6-((2-(((7R,11S,19aS,26R,30S,38aS)-7-(3-((4-((14S,17S)-1-(2,5-dioxo-2,5-dihydro-1H-pyrrol-1-yl)-14-isopropyl-12,15-dioxo-17-(3-ureidopropyl)-3,6,9-trioxa-13,16-diazaoctadecan-18-amido)benzyl)oxy)quinoline-2-carboxamido)-11,30-diisopropyl-12,15,31,34-tetramethyl-6,13,16,19,25,29,32,35,38-nonaoxotetratriacontahydro-2H,6H,10H-dipyrido[2,1-b1: 2′,1′-l][1]oxa[4,7,10,13,17,20,23,26,29]nonaazacyclodotriacontin-26-yl)carbamoyl)quinolin-3-yl)oxy)-3,4,5-trihydroxytetrahydro-2H-pyran-2-carboxylic acid	47% yield	–
(2S,3S,4S,5R,6S)-6-((2-(((7R,11S,19aS,26R,30S,38aS)-11,30-di((S)-sec-butyl)-26-(3-((4-((14S,17S)-1-(2,5-dioxo-2,5-dihydro-1H-pyrrol-1-yl)-14-isopropyl-12,15-dioxo-17-(3-ureidopropyl)-3,6,9-trioxa-13,16-diazaoctadecan-18-amido)benzyl)oxy)quinoline-2-carboxamido)-12,15,31,34-tetramethyl-6,10,13,16,19,25,29,32,35,38-decaoxohexatriacontahydro-2H,6H-dipyrido[1,2-a:1′,2′-q][1,4,7,10,13,17,20,23,26,29]decaazacyclodotriacontin-7-yl)carbamoyl)quinolin-3-yl)oxy)-3,4,5-trihydroxytetrahydro-2H-pyran-2-carboxylic acid	54% yield	–
(2S,3S,4S,5R,6S)-6-((2-(((7R,11S,19aS,26R,30S,38aS)-11-((S)-sec-butyl)-7-(3-((4-((14S,17S)-1-(2,5-dioxo-2,5-dihydro-1H-pyrrol-1-yl)-14-isopropyl-12,15-dioxo-17-(3-ureidopropyl)-3,6,9-trioxa-13,16-diazaoctadecan-18-amido)benzyl)oxy)quinoline-2-carboxamido)-30-isopropyl-12,15,31,34-tetramethyl-6,13,16,19,25,29,32,35,38-nonaoxotetratriacontahydro-2H,6H,10H-dipyrido[2,1-b1: 2′,1′-l][1]oxa[4,7,10,13,17,20,23,26,29]nonaazacyclodotriacontin-26-yl)carbamoyl)quinolin-3-yl)oxy)-3,4,5-trihydroxytetrahydro-2H-pyran-2-carboxylic acid	30% yield	–
(2S,3S,4S,5R,6S)-6-((2-(((7R,11S,19aS,26R,30S,38aS)-26-(3-((4-((14S,17S)-1-(2,5-dioxo-2,5-dihydro-1H-pyrrol-1-yl)-14-isopropyl-12,15-dioxo-17-(3-ureidopropyl)-3,6,9-trioxa-13,16-diazaoctadecan-18-amido)benzyl)oxy)quinoline-2-carboxamido)-11,30-diisopropyl-12,15,31,34-tetramethyl-6,10,13,16,19,25,29,32,35,38-decaoxohexatriacontahydro-2H,6H-dipyrido[1,2-a:1′,2′-q][1,4,7,10,13,17,20,23,26,29]decaazacyclodotriacontin-7-yl)carbamoyl)quinolin-3-yl)oxy)-3,4,5-trihydroxytetrahydro-2H-pyran-2-carboxylic acid	40% yield	–
(2S,3S,4S,5R,6S)-6-((2-(((7R,11S,19aS,26R,30S,38aS)-26-(3-((4-((14S,17S)-1-(2,5-dioxo-2,5-dihydro-1H-pyrrol-1-yl)-14-isopropyl-12,15-dioxo-17-(3-ureidopropyl)-3,6,9-trioxa-13,16-diazaoctadecan-18-amido)benzyl)oxy)quinoline-2-carboxamido)-15,34-diethyl-11,30-diisopropyl-12,31-dimethyl-6,10,13,16,19,25,29,32,35,38-decaoxohexatriacontahydro-2H,6H-dipyrido[1,2-a:1′,2′-q][1,4,7,10,13,17,20,23,26,29]decaazacyclodotriacontin-7-yl)carbamoyl)quinolin-3-yl)oxy)-3,4,5-trihydroxytetrahydro-2H-pyran-2-carboxylic acid	37% yield	–
(2S,3S,4S,5R,6S)-6-((2-(((7R,11S,19aS,26R,30S,38aS)-30-cyclohexyl-26-(3-((4-((14S,17S)-1-(2,5-dioxo-2,5-dihydro-1H-pyrrol-1-yl)-14-isopropyl-12,15-dioxo-17-(3-ureidopropyl)-3,6,9-trioxa-13,16-diazaoctadecan-18-amido)benzyl)oxy)quinoline-2-carboxamido)-11-isopropyl-12,15,31,34-tetramethyl-6,10,13,16,19,25,29,32,35,38-decaoxohexatriacontahydro-2H,6H-dipyrido[1,2-a:1′,2′-q][1,4,7,10,13,17,20,23,26,29]decaazacyclodotriacontin-7-yl)carbamoyl)quinolin-3-yl)oxy)-3,4,5-trihydroxytetrahydro-2H-pyran-2-carboxylic acid	60% yield	–
(7R,11S,19aS,26R,30S,38aS)-7,26-diamino-11-isopropyl-12,15,31,34-tetramethyl-30-phenyltetracosahydro-2H,6H-dipyrido[1,2-a:1′,2′-q]	–	step yield (over 2 steps): 53% over 2 steps
(7R,11S,19aS,26R,38aS)-26-(((benzyloxy)carbonyl)amino)-11-isopropyl-12,15,30,30,31,34-hexamethyl-	–	step yield: 45% yield
(7R,19aS,26R,30S,38aS)-7,26-diamino-30-isopropyl-11,11,12,15,31,34-hexamethyltetracosahydro-2H,6H-dipyrido[1,2-a:1′,2′-q]	–	step yield (monotrifluoroacetate salt): 85% yield
(7′R,19a'S,26′R,30'S,38a'S)-7′-(((benzyloxy)carbonyl)amino)-30′-isopropyl-12′,15′,31′,34′-tetramethyl-	–	step yield: 45% yield
(S)-1-((9S,13R)-1-((S)-1-((R)-3-((S)-2-(2-(2-amino-N-methylacetamido)-N-methylacetamido)-3-methylbutanamido)-2-(((benzyloxy)carbonyl)amino)propanoyl) piperidin-2-yl)-13-((tert-butoxycarbonyl)amino)-9-isopropyl-5,8-dimethyl-1,4,7,10-tetraoxo-2,5,8,11-tetraazatetradecan-14-oyl) piperidine-2-carboxylic acid	–	crude mass: 1 g; crude yield: 80%
(S)-1-((R)-2-(((benzyloxy)carbonyl)amino)-3-((S)-1-(N—(((S)-1-((R)-2-((tert-butoxycarbonyl)amino)-3-((S)-1-(N-glycyl-N-methylglycyl) azepane-2-carboxamido) propanoyl)piperidine-2-carbonyl)glycyl)-N-methylglycyl) azepane-2-carboxamido) propanoyl)piperidine-2-carboxylic acid	–	crude yield: 77% yield
(S)-1-(O—(N—(N—(((S)-1-((R)-3-((S)-2-(2-(2-amino-N-methylacetamido)-N-methylacetamido)-3-methylbutanamido)-2-(((benzyloxy)carbonyl) amino)propanoyl)piperidine-2-carbonyl)glycyl)-N-methylglycyl)-N-methyl-L-valyl)-N-(tert-butoxycarbonyl)-D-seryl) piperidine-2-carboxylic acid	–	crude mass (scale 0.4 mmol): 0.32 g; crude yield (scale 0.4 mmol): 71% yield
